Experimental data taken from publication PMC4654411.
No constants are given. Whether binding was seen depends on the method and setting. In cells and extracts the contact can be indirect. Some entries that bind do so weakly or less than the wild type. For some assays here: Tags and fused reporters may be left off the sequences shown.

The chains behind the UniProt entries cited, without tags or fusion partners. Where a name states a change or a piece, a line headed by the entry shows the natural chain unless it says otherwise.
UniProt P61586: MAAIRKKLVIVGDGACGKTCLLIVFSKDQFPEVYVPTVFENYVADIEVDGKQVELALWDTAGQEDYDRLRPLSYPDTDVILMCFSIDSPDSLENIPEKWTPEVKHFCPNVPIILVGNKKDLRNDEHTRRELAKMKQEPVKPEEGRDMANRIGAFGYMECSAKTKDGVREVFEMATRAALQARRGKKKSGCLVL
UniProt P21333: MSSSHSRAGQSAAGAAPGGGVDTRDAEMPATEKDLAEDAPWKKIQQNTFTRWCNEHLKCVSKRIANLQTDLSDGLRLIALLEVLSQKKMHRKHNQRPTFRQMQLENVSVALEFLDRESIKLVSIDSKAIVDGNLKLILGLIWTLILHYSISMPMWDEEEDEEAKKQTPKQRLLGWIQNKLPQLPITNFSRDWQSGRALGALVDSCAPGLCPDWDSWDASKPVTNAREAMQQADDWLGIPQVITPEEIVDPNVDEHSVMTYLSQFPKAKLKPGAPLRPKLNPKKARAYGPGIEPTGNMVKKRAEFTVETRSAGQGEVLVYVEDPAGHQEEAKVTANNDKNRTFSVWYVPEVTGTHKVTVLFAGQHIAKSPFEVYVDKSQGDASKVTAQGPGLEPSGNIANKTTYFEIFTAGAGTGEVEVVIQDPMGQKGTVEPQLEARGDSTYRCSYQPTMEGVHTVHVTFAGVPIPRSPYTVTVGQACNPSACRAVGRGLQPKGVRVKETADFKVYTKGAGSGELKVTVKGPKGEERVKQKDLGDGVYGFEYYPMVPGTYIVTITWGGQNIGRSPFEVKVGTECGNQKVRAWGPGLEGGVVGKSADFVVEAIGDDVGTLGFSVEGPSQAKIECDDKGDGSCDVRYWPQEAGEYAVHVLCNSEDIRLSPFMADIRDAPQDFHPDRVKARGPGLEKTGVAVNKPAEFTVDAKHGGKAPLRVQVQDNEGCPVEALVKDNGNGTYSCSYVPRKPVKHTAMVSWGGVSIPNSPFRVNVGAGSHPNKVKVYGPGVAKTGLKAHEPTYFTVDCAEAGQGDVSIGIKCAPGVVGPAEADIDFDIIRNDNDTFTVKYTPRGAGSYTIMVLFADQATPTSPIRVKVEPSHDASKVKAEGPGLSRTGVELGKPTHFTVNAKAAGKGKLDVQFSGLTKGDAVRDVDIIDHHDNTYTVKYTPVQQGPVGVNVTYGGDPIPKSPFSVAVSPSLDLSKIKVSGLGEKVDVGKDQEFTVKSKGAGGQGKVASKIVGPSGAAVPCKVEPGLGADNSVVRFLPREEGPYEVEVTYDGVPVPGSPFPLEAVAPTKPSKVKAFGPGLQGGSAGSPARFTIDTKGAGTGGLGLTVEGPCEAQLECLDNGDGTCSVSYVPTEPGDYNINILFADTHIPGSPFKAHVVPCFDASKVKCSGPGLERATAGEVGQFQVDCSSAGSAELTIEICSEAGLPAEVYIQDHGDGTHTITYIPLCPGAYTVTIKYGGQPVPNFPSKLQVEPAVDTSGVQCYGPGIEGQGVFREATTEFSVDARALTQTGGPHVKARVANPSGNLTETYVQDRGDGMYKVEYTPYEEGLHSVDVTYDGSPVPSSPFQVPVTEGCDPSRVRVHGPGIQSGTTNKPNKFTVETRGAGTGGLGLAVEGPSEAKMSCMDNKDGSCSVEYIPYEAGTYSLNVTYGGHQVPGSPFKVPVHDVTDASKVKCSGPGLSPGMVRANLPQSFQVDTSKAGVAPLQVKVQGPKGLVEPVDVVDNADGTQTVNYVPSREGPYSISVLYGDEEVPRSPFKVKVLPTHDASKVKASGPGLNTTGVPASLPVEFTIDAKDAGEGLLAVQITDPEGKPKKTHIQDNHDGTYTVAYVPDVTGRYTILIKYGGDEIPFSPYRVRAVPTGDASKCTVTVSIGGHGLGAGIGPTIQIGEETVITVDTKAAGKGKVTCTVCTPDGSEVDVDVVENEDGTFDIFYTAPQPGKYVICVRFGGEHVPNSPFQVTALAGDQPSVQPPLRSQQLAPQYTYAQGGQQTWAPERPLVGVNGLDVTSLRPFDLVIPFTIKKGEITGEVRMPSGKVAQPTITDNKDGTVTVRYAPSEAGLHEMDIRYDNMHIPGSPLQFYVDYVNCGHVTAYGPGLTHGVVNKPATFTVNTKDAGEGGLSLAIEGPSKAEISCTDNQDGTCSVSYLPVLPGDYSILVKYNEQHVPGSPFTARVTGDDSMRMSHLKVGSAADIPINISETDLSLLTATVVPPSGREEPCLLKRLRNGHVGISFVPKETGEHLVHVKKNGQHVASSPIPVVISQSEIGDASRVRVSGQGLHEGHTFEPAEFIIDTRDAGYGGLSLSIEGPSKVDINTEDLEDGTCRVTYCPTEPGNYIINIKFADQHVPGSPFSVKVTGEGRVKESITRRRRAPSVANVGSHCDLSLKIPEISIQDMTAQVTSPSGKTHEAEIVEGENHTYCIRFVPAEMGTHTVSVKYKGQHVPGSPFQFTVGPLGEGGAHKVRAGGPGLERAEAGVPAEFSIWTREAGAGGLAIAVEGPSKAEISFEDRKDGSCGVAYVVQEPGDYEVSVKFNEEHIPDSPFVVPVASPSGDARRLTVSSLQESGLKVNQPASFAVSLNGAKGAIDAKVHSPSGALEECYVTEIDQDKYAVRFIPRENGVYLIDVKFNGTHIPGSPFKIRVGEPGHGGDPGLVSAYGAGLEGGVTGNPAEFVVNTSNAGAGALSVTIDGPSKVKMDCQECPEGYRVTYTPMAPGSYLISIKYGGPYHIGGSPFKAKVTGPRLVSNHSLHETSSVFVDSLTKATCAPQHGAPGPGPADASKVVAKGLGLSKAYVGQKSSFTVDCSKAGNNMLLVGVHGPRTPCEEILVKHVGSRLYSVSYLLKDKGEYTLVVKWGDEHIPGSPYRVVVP

T1: Full-length HA-tagged PTPN12 (human) (UniProt Q05209)
T1 sequence: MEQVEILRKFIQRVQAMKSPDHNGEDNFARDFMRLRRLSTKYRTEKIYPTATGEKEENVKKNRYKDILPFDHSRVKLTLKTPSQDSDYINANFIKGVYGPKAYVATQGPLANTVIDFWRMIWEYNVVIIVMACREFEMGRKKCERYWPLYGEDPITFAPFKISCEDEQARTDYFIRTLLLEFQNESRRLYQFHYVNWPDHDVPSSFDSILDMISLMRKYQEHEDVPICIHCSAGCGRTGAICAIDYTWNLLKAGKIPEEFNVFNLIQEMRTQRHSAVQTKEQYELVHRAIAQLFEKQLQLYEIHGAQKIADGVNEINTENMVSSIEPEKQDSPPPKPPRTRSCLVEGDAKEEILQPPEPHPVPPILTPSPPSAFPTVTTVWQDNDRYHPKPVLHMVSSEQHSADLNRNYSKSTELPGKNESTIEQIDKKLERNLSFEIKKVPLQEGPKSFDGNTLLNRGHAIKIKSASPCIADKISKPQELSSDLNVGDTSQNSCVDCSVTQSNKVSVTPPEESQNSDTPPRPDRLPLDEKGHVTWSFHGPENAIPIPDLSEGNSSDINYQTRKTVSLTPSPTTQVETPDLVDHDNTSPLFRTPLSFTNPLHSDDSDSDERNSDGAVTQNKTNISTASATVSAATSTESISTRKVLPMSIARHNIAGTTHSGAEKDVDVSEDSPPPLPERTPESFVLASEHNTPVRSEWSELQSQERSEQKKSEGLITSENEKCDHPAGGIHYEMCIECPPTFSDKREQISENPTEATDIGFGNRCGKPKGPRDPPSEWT

B1: p190RhoGAP (protein, UniProt Q9NRY4 1-1499)
chain: MMMARKQDVRIPTYNISVVGLSGTEKEKGQCGIGKSCLCNRFVRPSADEFHLDHTSVLSTSDFGGRVVNNDHFLYWGEVSRSLEDCVECKMHIVEQTEFIDDQTFQPHRSTALQPYIKRAAATKLASAEKLMYFCTDQLGLEQDFEQKQMPDGKLLVDGFLLGIDVSRGMNRNFDDQLKFVSNLYNQLAKTKKPIVVVLTKCDEGVERYIRDAHTFALSKKNLQVVETSARSNVNVDLAFSTLVQLIDKSRGKTKIIPYFEALKQQSQQIATAKDKYEWLVSRIVKNHNENWLSVSRKMQASPEYQDYVYLEGTQKAKKLFLQHIHRLKHEHIERRRKLYLAALPLAFEALIPNLDEIDHLSCIKAKKLLETKPEFLKWFVVLEETPWDATSHIDNMENERIPFDLMDTVPAEQLYEAHLEKLRNERKRVEMRRAFKENLETSPFITPGKPWEEARSFIMNEDFYQWLEESVYMDIYGKHQKQIIDKAKEEFQELLLEYSELFYELELDAKPSKEKMGVIQDVLGEEQRFKALQKLQAERDALILKHIHFVYHPTKETCPSCPACVDAKIEHLISSRFIRPSDRNQKNSLSDPNIDRINLVILGKDGLARELANEIRALCTNDDKYVIDGKMYELSLRPIEGNVRLPVNSFQTPTFQPHGCLCLYNSKESLSYVVESIEKSRESTLGRRDNHLVHLPLTLILVNKRGDTSGETLHSLIQQGQQIASKLQCVFLDPASAGIGYGRNINEKQISQVLKGLLDSKRNLNLVSSTASIKDLADVDLRIVMCLMCGDPFSADDILFPVLQSQTCKSSHCGSNNSVLLELPIGLHKKRIELSVLSYHSSFSIRKSRLVHGYIVFYSAKRKASLAMLRAFLCEVQDIIPIQLVALTDGAVDVLDNDLSREQLTEGEEIAQEIDGRFTSIPCSQPQHKLEIFHPFFKDVVEKKNIIEATHMYDNAAEACSTTEEVFNSPRAGSPLCNSNLQDSEEDIEPSYSLFREDTSLPSLSKDHSKLSMELEGNDGLSFIMSNFESKLNNKVPPPVKPKPPVHFEITKGDLSYLDQGHRDGQRKSVSSSPWLPQDGFDPSDYAEPMDAVVKPRNEEENIYSVPHDSTQGKIITIRNINKAQSNGSGNGSDSEMDTSSLERGRKVSIVSKPVLYRTRCTRLGRFASYRTSFSVGSDDELGPIRKKEEDQASQGYKGDNAVIPYETDEDPRRRNILRSLRRNTKKPKPKPRPSITKATWESNYFGVPLTTVVTPEKPIPIFIERCIEYIEATGLSTEGIYRVSGNKSEMESLQRQFDQDHNLDLAEKDFTVNTVAGAMKSFFSELPDPLVPYNMQIDLVEAHKINDREQKLHALKEVLKKFPKENHEVFKYVISHLNKVSHNNKVNLMTSENLSICFWPTLMRPDFSTMDALTATRTYQTIIELFIQQCPFFFYNRPITEPPGARPSSPSAVASTVPFLTSTPVTSQPSPPQSPPPTPQSPMQPLLPSQLQAEHTL

Assays:
[1] = biological target: T1, Full-length HA-tagged PTPN12 (human); assay: co-IP; Hek293 cells co-transfected with HA-PTPN12 and GFP-tagged FlnAs; 500 µg lysate in NETF buffer, 6 µg anti-HA 2 h at 4 °C, protein A beads; immunoblot
GST-RhoA-Q63L = GST-RhoA-Q63L (UniProt P61586); assay: pull-down; GST-RhoA-Q63L as bait with lysates of melanoma cells expressing FlnA-WT or FlnA-P637Q, protocol similar to the GST-PTPN12 pull-down; anti-p190RhoGAP immunoblot; only the target purified

binding [1] | binding (GST-RhoA-Q63L) | Molecule
binds | – | GFP-tagged-FlnA-WT (from UniProt P21333 1-2647)
– | binds | B1
